PubChem BioAssay AID1671195 | Yale University | 2021

Assay: 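Knockdowns that increase or decrease uptake of fluorescent LDL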 (primary screen)
System: human Huh7 hepatoma cells
Reagent: siRNA pool against human genes, 18 nM
Duration: about 2 to 2.5 days of knockdown, then 8 h LDL uptake
Treatment: DiI-labelled LDL at 30 µg/ml for 8 h, in lipoprotein-deficient serum medium
Read-out: 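Fluorescent LDL signal imaged in cells, scaled to the plate median, robust z-score for each replicate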
Scale: robust z-score: higher = more LDL uptake after knockdown
Hit rule: 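Active when two or more replicates show a robust z-score above 2 or below -2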
In all, the deposit lists about 22,000 reagents; shown is a random part of them. In the full data, about 1,510 (6.9%) were called active. 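Active includes knockdowns raising or lowering LDL uptake; positive z-scores mean more uptake, negative mean less.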 Reagent sequences are not shown.

| target gene | robust z-score, replicate 1 | robust z-score, replicate 2 | robust z-score, replicate 3 | Call |
| --- | --- | --- | --- | --- |
| NEO1 | -0.713 | -0.0354 | 0.378 | inactive |
| BIN3 | 4.84 | 5.02 | 3.62 | active |
| MAPKBP1 | -0.712 | -1.83 | -0.891 | inactive |
| ZNF521 | 2.24 | 2.88 | 2.7 | active |
| RAG1 | 0.509 | 0.00582 | 0.814 | inactive |
| QRICH1 | -0.0864 | 0.336 | -0.227 | inactive |
| FBXO47 | -0.98 | -1.72 | -1.4 | inactive |
| MRPL19 | -0.16 | 1.61 | 0.0575 | inactive |
| TOX | -0.0507 | -1.09 | -0.782 | inactive |
| LOC401132 (retired record) | 0.768 | 0.696 | 0.733 | inactive |
| GOLGA7B | -0.629 | -0.65 | -0.698 | inactive |
| CCN5 | 2.6 | 0.422 | 1.49 | inactive |
| USP42 | 0.152 | 0.501 | 0.489 | inactive |
| ZG16 | -0.909 | 0.479 | 0.633 | inactive |
| LOC440588 (retired record) | -0.377 | -0.313 | -0.383 | inactive |
| FBXL12 | -0.327 | -0.0943 | -0.658 | inactive |
| GATD1 | -1.44 | -1.35 | -1.52 | inactive |
| IQSEC2 | -0.801 | 0.225 | -0.293 | inactive |
| LOC387705 (retired record) | 0.433 | -0.252 | -0.133 | inactive |
| HSF1 | -1.64 | -0.0889 | -1.36 | inactive |
| IER5L | 0.519 | 0.925 | 0.514 | inactive |
| MSANTD4 | -0.614 | -0.604 | -0.59 | inactive |
| SF3B4 | -0.781 | -0.779 | -0.105 | inactive |
| EXOC4 | -0.709 | -0.0721 | -0.957 | inactive |
| LOC440277 (retired record) | -0.697 | -1.01 | -0.658 | inactive |
| OTC | -0.51 | 0.623 | -0.334 | inactive |
| SIAE | 2.16 | 3.41 | 3.09 | active |
| ATXN1L | -1.05 | -1.02 | -1 | inactive |
| LOC401199 (retired record) | 2.24 | -1.61 | 1.53 | inactive |
| CYB5A | -1.35 | -1.1 | -1.44 | inactive |
| ERVK13-1 | -0.36 | -0.735 | -0.597 | inactive |
| CACNB3 | 1.63 | 0.697 | 1.36 | inactive |
| CYP1B1-AS1 | -0.487 | -0.679 | -0.69 | inactive |
| ZNF209P | -1.25 | -0.902 | -0.9 | inactive |
| SPZ1 | 0.086 | 0.249 | 0.296 | inactive |
| LRATD1 | 0.452 | -0.284 | 0.719 | inactive |
| ELF1 | 2.15 | 1.87 | 2.03 | active |
| LBX2 | -0.593 | -0.691 | -0.258 | inactive |
| RBM26 | -0.559 | -0.173 | -0.47 | inactive |
| RBM24 | -0.00709 | -0.368 | 0.051 | inactive |
| MTHFS | -1.63 | 0.173 | 0.104 | inactive |
| RAB6C | 0.182 | 1.12 | 0.0508 | inactive |
| LOC253584 (retired record) | -0.072 | 0.184 | 0.191 | inactive |
| RABIF | -0.532 | 0.596 | 0.73 | inactive |
| DYRK2 | 2.16 | 1.07 | 0.23 | inactive |
| INIP | 1.12 | 1.18 | 0.879 | inactive |
| CYBA | 0.537 | 0.0336 | 0.0953 | inactive |
| LOC283530 (retired record) | -1.23 | -0.935 | -1.13 | inactive |
| NT5E | 0.00804 | 0.0684 | 0.228 | inactive |
| NEK4 | -1.12 | -1.54 | -1.81 | inactive |
| MLN | -1.42 | -2.03 | -1.06 | inactive |
| SLC25A6 | 2.88 | 3.24 | 0.824 | active |
| FBXL21P | 0.981 | -0.0315 | -1.19 | inactive |
| SEC61B | -2.96 | -0.517 | -1.31 | inactive |
| RRAS | 0.48 | -0.804 | 0.141 | inactive |
| HBZ | 2.01 | 0.169 | -2.57 | inactive |
| TRIM66 | 1.37 | -0.311 | 0.964 | inactive |
| GNG3 | 0.209 | 0.34 | 0.364 | inactive |
| AGR2 | 0.548 | 0.705 | 0.702 | inactive |
| TMUB1 | 2.37 | 2.83 | 2.56 | active |
| IRAK1 | -0.595 | -0.326 | 0.739 | inactive |
| HIVEP2 | 1.8 | -0.673 | 0.904 | inactive |
| TINF2 | -0.443 | -0.872 | -0.637 | inactive |
| ICMT-DT | -0.781 | -0.712 | -1.26 | inactive |
| PCDHGC5 | -0.245 | -0.34 | -0.129 | inactive |
| IBTK | -0.247 | 0.104 | -1.3 | inactive |
| ZNF622 | 0.0605 | -0.302 | -0.448 | inactive |
| PLEK2 | -1.53 | -1.75 | -2.01 | inactive |

5 entries already listed, sorted by “robust z-score, replicate 3”, highest first.
| target gene | robust z-score, replicate 1 | robust z-score, replicate 2 | robust z-score, replicate 3 | Call |
| --- | --- | --- | --- | --- |
| LOC401132 (retired record) | 0.768 | 0.696 | 0.733 | inactive |
| MRPL19 | -0.16 | 1.61 | 0.0575 | inactive |
| GOLGA7B | -0.629 | -0.65 | -0.698 | inactive |
| TOX | -0.0507 | -1.09 | -0.782 | inactive |
| FBXO47 | -0.98 | -1.72 | -1.4 | inactive |
